Among the data in the supplement of paper PMC5949888 are growth estimate values, retold here.

Most values lie at the floor of the assay. Slopes are relative: functional sequences can read slightly below zero. Some results are limits rather than exact numbers.

The test system of this series is Saccharomyces cerevisiae PS128 hsf1 delta, HSF1(1-493) fusion. The series can be described thus: growth estimate (transactivation domain function in HSF1 fusion, heat-shock survival) (a.u. (slope of normalised read count over time)); higher = stronger growth at 37°C, i.e. more transactivation activity. As to conditions: library: random library. On the procedure: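 Random 60-nt DNA library encoding peptides of up to 20 aa, fused to the C-terminus of yeast HSF1 residues 1-493 (C-terminal TAD deleted) and expressed from the native HSF1 promoter on a CEN plasmid in hsf1-deleted S. cerevisiae PS128. Cells were selected at 37°C on -trp 5-FOA plates for 0, 2, 4, 6 and 8 days and amplicons were sequenced. Growth estimate is the slope of a robust linear fit of total-sum-normalised read counts (normalised to the first time point) over time, using at least 2 replicates. Sequences are classed functional (TAD activity) above a threshold of -0.13, set from stop-codon control sequences.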
With TSVILERPA, the growth estimate was < -0.25. For the substance VSVSEPSISRNRDNNGLVCQ, the growth estimate was < -0.25. In the case of LIVVTLPSSTHRVGCSLSE it was < -0.25.

Take YPQEGLKGVVLRICEEVCPP: the growth estimate was < -0.25. In the case of VRQRLYSEIATYEHVQKETL it was < -0.25; in that of CALDHTRPEEFGRHLRVVPF, -0.245; in that of LFTPPRSSAPLDEV, < -0.25. In the case of PQTWATVLD it was < -0.25; in that of PIMILDKPVRGLVETVTF, < -0.25. In the case of LCHSRQNCHIHAAWLQ it was < -0.25. Consider AINASLPL, for which the growth estimate was < -0.25. In the case of RLSSRILPGSLVGLAHSSVI it was < -0.25; in that of PFPGGSGRGN, < -0.25. In the case of PMRDL it was < -0.25; in that of SAIACDFLQRRGLHFLLSVA, < -0.25. CGVGAVLVEKL: the growth estimate is < -0.25. In the case of QTSTCTENLARVIYHSVSWL it was < -0.25; in that of QFSGDCLRHRTEALDVLRSR, < -0.25; in that of DDWLIYILRDWPGNKDAHCG, < -0.25. In the case of RFGSGAVEARVLYISTCAIS it was < -0.25; in that of SILVGYVTLYVAYERRNNRR, < -0.25; in that of NGHHW, < -0.25. In the case of FTLGTELLEQLRR it was < -0.25; in that of IRDGHARQHEWSRFR, < -0.25. In the case of SQAMHIC, the growth estimate is < -0.25. Regarding LPPAPRCAVMYLSRIRLWHG, the growth estimate was < -0.25. In the case of LNCSMGV it was < -0.25; in that of PESLVCSNALRTP, < -0.25. In the case of LHVG it was < -0.25. Take HSQAGEASRYKLIATTSES: the growth estimate is < -0.25.

Consider GDERNGGSIAEIWDLRWSEM, for which the growth estimate is -0.247. In the case of DAVK it was < -0.25. For APSGHVKLVGWMPYALTCSD, the growth estimate is < -0.25. In the case of VMVHLRLSHT it was < -0.25; in that of PLGIGCLASI, < -0.25. In the case of GKLISGVGLGECRMPGTERR it was -0.246. Take SCAHGFKW: the growth estimate was < -0.25. Regarding GPLPGRAMASGPH, the growth estimate was < -0.25. As to AAISYTVERVQDIPGWSRAN, the growth estimate was < -0.25. In the case of SLRQRSLQTSSSTRFHNGSA it was < -0.25. In the case of IRLGGDGRSSEYGHRKTARS it was < -0.25; in that of VCGYEDQPQWIPVAKEMTAR, < -0.25.

On to VLAYKYMRLDEWHGNKQAQG, for which the growth estimate was < -0.25. In the case of ERYPSEVAIPSRSGDLQWCG it was < -0.25.

In the case of QEAYPFRLHRPTDARPCLAS, the growth estimate is -0.218. In the case of LCEPKFFEDF it was < -0.25. In the case of QFTDPGPQTNAFCWHGSDSA it was < -0.25; in that of KPS, < -0.25. In the case of QQVGSNCRVTAVGYPSTGSQ it was < -0.25; in that of HYSDIKSQDSGVVLGVGVLV, < -0.25.

Turning to NTLEHG, the growth estimate was < -0.25. Consider NMIFSIRVVSMR, for which the growth estimate is < -0.25. With GSAICVLDGRMVSSFLSSLA, the growth estimate is < -0.25. For GIASLLDRLVGLGSTRADGP, the growth estimate was < -0.25.

Consider TCDYSRPGMVRLAILLTGDD, for which the growth estimate was < -0.25. In the case of SIPSLDCWSCQT it was < -0.25; in that of AKWGVCVCRFKQRKC, < -0.25; in that of YMLSTSRIYVKRHPSVRN, < -0.25. In the case of IQPDGV it was < -0.25; in that of ALGH, < -0.25; in that of GWWSFQTVFRG, < -0.25.

On to GRLQLAARTLSSAI, for which the growth estimate is < -0.25. In the case of SCRTGNLRQRIYEQCSWTGP it was < -0.25; in that of KPGCRQ, < -0.25; in that of VCR, < -0.25. In the case of PGAIRLREPRSSHAC it was < -0.25. In the case of KNAYLAGCGCYNQGA it was < -0.25; in that of SPGRGRP, < -0.25. As to ISVIVEVGVTG, the growth estimate was < -0.25.

Regarding PCPTVPTHKRPPVTWRLFRN, the growth estimate is < -0.25. For the substance GQSKTTSSAPLIPLNTAVLR, the growth estimate is < -0.25. With GIGTEQLMEVAGA, the growth estimate was < -0.25. Take CDWGVNSAKASRDARVCYGE: the growth estimate was < -0.25. In the case of DGRVGDAVKPRDDEVRRPMG, the growth estimate was < -0.25. In the case of EPRACRRPVCGCNRLPS it was < -0.25.

For the substance GRRRLNARVGVQVCLLSSRL, the growth estimate is < -0.25.

Take VPHVGNGNAYPIKSPKA: the growth estimate is < -0.25. In the case of RVDHPKCRFYRRYCVIIARH it was < -0.25; in that of EQALVI, < -0.25; in that of TCPDRKLIFPLMSYAWVGRT, < -0.25.

As for RFCPKEASCNYYNRKVRQDR, the growth estimate was < -0.25. In the case of GIDELPPEPRLGQARRAGTA it was < -0.25; in that of SVSLEGEPSLTPA, < -0.25; in that of QPYCLYSAVRTCRGIQGRNP, < -0.25. In the case of YLSVHVVPF it was < -0.25; in that of SLSGTHARSVVYHSGQAEHI, < -0.25. In the case of HET it was < -0.25; in that of TPFK, < -0.25; in that of LRQPLRCFSCLSAIERRVSG, < -0.25.

With LLHRLVTRWIRLQGVSD, the growth estimate was < -0.25. In the case of SIMAQGH it was < -0.25. Consider SRTANEGQLADLSRRALRGS, for which the growth estimate was < -0.25.

Consider PEKSESCLNGLVRNRDRSEE, for which the growth estimate was -0.228. In the case of QHG it was < -0.25. In the case of GQTNDPSVHPRRVVVDRIQH it was < -0.25. As for SKSWNTLLARVLGLSCLPRP, the growth estimate is < -0.25. In the case of TICGRGDWYDGVAAHCLRAT it was < -0.25. In the case of FNALLHQRHGYGIIRTADI it was < -0.25; in that of QNLRLRCNVRKGCG, < -0.25. As to LGYDSRTRCVPWESILGWRL, the growth estimate is < -0.25. In the case of IRVNLVYSSSTVNVCHRSTS it was < -0.25; in that of PWSATILLPQKWRGAPEWLR, < -0.25; in that of HRVPAGISVEVHLSRILCYA, < -0.25. As to IWTHNGLLQLVL, the growth estimate was < -0.25. As to LWELI, the growth estimate was < -0.25. Regarding RSEF, the growth estimate is < -0.25.

With CTYGNYLVYIGVTAISYLYP, the growth estimate was < -0.25. In the case of GTSVIFVGRVPANPQQV it was -0.225; in that of LHLEKVGPRPSNGSACP, < -0.25; in that of QDRCAQCVIIQVGWSKVGIP, < -0.25. In the case of LYCLIL it was < -0.25; in that of EDLHFTPMACNTSLIRES, < -0.25. In the case of VADRTNENRSVTYNSVVSWP it was < -0.25. Consider VWACSVTFSGS, for which the growth estimate is < -0.25. In the case of CLIPWGRFLPYPRLKQGDFM it was < -0.25.

On to LLGKVTYSQKVCTKSPGRLT, for which the growth estimate was < -0.25.

Turning to CAYLYHSVRYRIRGNLRVGL, the growth estimate was < -0.25. In the case of HLWRTW it was < -0.25. In the case of VTRIKSIETGFRFGGISSAS it was < -0.25.

For VPKHGFVDRYYLIVKC, the growth estimate is < -0.25. In the case of VYTGARSPELLRWEWLLKQE it was -0.241; in that of GRGTASMRAGGMDTASAGLP, < -0.25. In the case of VVRCKDSIGMNPRTIQLSKL it was < -0.25; in that of VDRG, < -0.25. In the case of FRIRS it was < -0.25; in that of VSLIRYVVSAISMIQPHRSA, < -0.25; in that of GGT, < -0.25. Take GPRALVENLMGQLERLREIL: the growth estimate is < -0.25.

For DTTIKARCSWIGTRCYMQSR, the growth estimate is < -0.25. In the case of FRVNYAIGGLVLRDSASP it was < -0.25. IGDCCILGSSGGEKGLFGLF: the growth estimate is 3.64. On to YKLFIWDRTSVTD, for which the growth estimate is < -0.25. In the case of VDLHRLAPLSFTFARAIHLW it was < -0.25; in that of PREDSVMVITSE, < -0.25. For FGGRVSLNSSCSFQSIAACG, the growth estimate was < -0.25.

Regarding RRSKRRTEYALCSVRLQCCH, the growth estimate is < -0.25.

On to TDGAVCTRHE, for which the growth estimate is < -0.25. In the case of CLRRMRDSRRVGVAGKTSVA it was < -0.25; in that of PPGAWVPLGKVVPKVAWRVA, < -0.25; in that of IISRFKD, -0.246. In the case of YLRIPSITLSQPQLASSLSV it was < -0.25; in that of NGRVVHPCRVEPRMRVVDGS, < -0.25; in that of SGCLRGEVS, < -0.25. In the case of GKQRVV it was < -0.25; in that of WAGGFLVRAESSRIRSVRPE, < -0.25. Take DRPTPESDLGVMHEGDVTVE: the growth estimate is -0.248. In the case of ITHMANLSFVLIPRMSRRSG it was < -0.25; in that of RIIAHVVYNSDPANGCQLAR, < -0.25. In the case of TIAFGRLDHIVSADNWYDQC it was < -0.25.
